# Laboratory results taken from patent publication US10563263B2, “Genetic polymorphisms associated with statin response and cardiovascular diseases, methods of detection and uses thereof” (CELERA CORPORATION, priority 2010, dated 2020).
# This continues a long series; more values of the same kind are listed elsewhere.
# System: CHD
# Assay: Meta-analysis of CARE and WOSCOPS combined, synergy index, CHD endpoint
# Format: in vivo, human
# Excerpt: Tables 4-5 provide meta-analyses of CARE and WOSCOPS combined (2nd section of each table) for two endpoints (CHD and CVD) and three genetic models (dominant, recessive, and additive), as well as logistic regression analyses of CARE (3rd section of each table) and WOSCOPS (4th section of each table) individually.
# Tables 12 and 17 provide results of meta-analysis of the CARE and WOSCOPS sample sets combined by direct genotyping and by imputing genotypes.
# “P” indicates the p-value, and “P(R)” (or “P.R.”) indicates the p-value random effect. Both of these are p-values corresponding to a statistical test of whether the combined synergy index is equal to one but use different assumptions to derive the p-value. “P” is calculated using a fixed effects model, and “P(R)” is calculated using a random effects model.
# “OR” indicates the odds ratio (synergy index) calculated from a fixed effects model, and “OR(R)” (or “OR.R.”) indicates the odds ratio (synergy index) calculated from a random effects model.
# [1] = rs36071725 allele C ADDITIVE Genotyped
# [2] = rs36071725 allele C GENOTYPIC Genotyped
# [3] = rs41395945 allele G ADDITIVE Imputed
# [4] = rs41395945 allele G DOMINANT Imputed
smiles,measurement,setting,value
"CC[C@H](C)C(=O)O[C@H]1C[C@H](O)C=C2C=C[C@H](C)[C@H](CC[C@@H](O)C[C@@H](O)CC(=O)O)[C@H]21 [Pravastatin, pravastatin]",OR(R),"rs12831292 allele G DOMINANT Imputed, random effect",0.6038
same,OR,"rs13012636 allele G RECESSIVE Imputed, fixed effect",1.7676
same,OR(R),"rs13012636 allele G RECESSIVE Imputed, random effect",1.7676
same,OR,"rs13038146 allele C ADDITIVE Imputed, fixed effect",1.3722
same,OR(R),"rs13038146 allele C ADDITIVE Imputed, random effect",1.3722
same,OR,"rs13038146 allele C GENOTYPIC Imputed, fixed effect",1.9531
same,OR(R),"rs13038146 allele C GENOTYPIC Imputed, random effect",1.9531
same,OR,"rs13038146 allele C RECESSIVE Imputed, fixed effect",1.7021
same,OR(R),"rs13038146 allele C RECESSIVE Imputed, random effect",1.7021
same,OR,"rs13089860 allele A DOMINANT Imputed, fixed effect",0.6379
same,OR(R),"rs13089860 allele A DOMINANT Imputed, random effect",0.6379
same,OR,"rs13102419 allele T RECESSIVE Imputed, fixed effect",1.7512
same,OR(R),"rs13102419 allele T RECESSIVE Imputed, random effect",1.7512
same,Meta-analysis OR,rs13137776 allele G vs A (ref),0.70
same,OR,"rs13194907 allele A ADDITIVE Imputed, fixed effect",1.9871
same,OR(R),"rs13194907 allele A ADDITIVE Imputed, random effect",1.9871
same,OR,"rs13194907 allele A DOMINANT Imputed, fixed effect",2.0957
same,OR(R),"rs13194907 allele A DOMINANT Imputed, random effect",2.0957
same,OR,"rs13195745 allele A ADDITIVE Imputed, fixed effect",1.9837
same,OR(R),"rs13195745 allele A ADDITIVE Imputed, random effect",1.9837
same,OR,"rs13195745 allele A DOMINANT Imputed, fixed effect",2.0917
same,OR(R),"rs13195745 allele A DOMINANT Imputed, random effect",2.0917
same,OR,"rs13265054 allele T DOMINANT Imputed, fixed effect",0.6362
same,OR(R),"rs13265054 allele T DOMINANT Imputed, random effect",0.6362
same,OR,"rs13273002 allele A GENOTYPIC Imputed, fixed effect",0.2714
same,OR(R),"rs13273002 allele A GENOTYPIC Imputed, random effect",0.2714
same,OR,"rs13282131 allele C ADDITIVE Imputed, fixed effect",1.3612
same,OR(R),"rs13282131 allele C ADDITIVE Imputed, random effect",1.3612
same,OR,"rs13282131 allele C GENOTYPIC Imputed, fixed effect",1.8797
same,OR(R),"rs13282131 allele C GENOTYPIC Imputed, random effect",1.8797
same,OR,"rs13282131 allele C RECESSIVE Imputed, fixed effect",1.6011
same,OR(R),"rs13282131 allele C RECESSIVE Imputed, random effect",1.6011
same,OR,"rs13387284 allele A DOMINANT Imputed, fixed effect",0.5856
same,OR(R),"rs13387284 allele A DOMINANT Imputed, random effect",0.5856
same,OR,"rs13401462 allele C DOMINANT Imputed, fixed effect",1.8734
same,OR(R),"rs13401462 allele C DOMINANT Imputed, random effect",1.8734
same,OR,"rs13409045 allele T ADDITIVE Imputed, fixed effect",0.7108
same,OR(R),"rs13409045 allele T ADDITIVE Imputed, random effect",0.7108
same,Meta-analysis OR,rs13431868 allele A vs G (ref),1.59
same,OR,"rs16938626 allele G DOMINANT Imputed, fixed effect",0.6242
same,OR(R),"rs16938626 allele G DOMINANT Imputed, random effect",0.6242
same,OR,"rs16964300 allele G ADDITIVE Imputed, fixed effect",0.6665
same,OR(R),"rs16964300 allele G ADDITIVE Imputed, random effect",0.6665
same,OR,"rs16964300 allele G DOMINANT Imputed, fixed effect",0.6299
same,OR(R),"rs16964300 allele G DOMINANT Imputed, random effect",0.618
same,OR,"rs16986282 allele G DOMINANT Imputed, fixed effect",0.4237
same,OR(R),"rs16986282 allele G DOMINANT Imputed, random effect",0.4355
same,OR,"rs17007620 allele G ADDITIVE Imputed, fixed effect",1.5131
same,OR(R),"rs17007620 allele G ADDITIVE Imputed, random effect",1.5131
same,OR,"rs17007620 allele G DOMINANT Imputed, fixed effect",1.684
same,OR(R),"rs17007620 allele G DOMINANT Imputed, random effect",1.684
same,OR,"rs17014326 allele G DOMINANT Imputed, fixed effect",0.6151
same,OR(R),"rs17014326 allele G DOMINANT Imputed, random effect",0.6151
same,OR,"rs17047957 allele C DOMINANT Imputed, fixed effect",1.5018
same,OR(R),"rs17047957 allele C DOMINANT Imputed, random effect",1.5018
same,OR,"rs17073341 allele A ADDITIVE Imputed, fixed effect",2.0963
same,OR(R),"rs17073341 allele A ADDITIVE Imputed, random effect",1.9757
same,OR,"rs17073341 allele A DOMINANT Imputed, fixed effect",2.0915
same,OR(R),"rs17073341 allele A DOMINANT Imputed, random effect",1.9741
same,OR,"rs17138702 allele G ADDITIVE Imputed, fixed effect",0.6037
same,OR(R),"rs17138702 allele G ADDITIVE Imputed, random effect",0.6037
same,Meta-analysis OR,rs17138705 allele A vs G (ref),0.59
same,OR,"rs17189710 allele T ADDITIVE Imputed, fixed effect",1.3762
same,OR(R),"rs17189710 allele T ADDITIVE Imputed, random effect",1.3762
same,OR,"rs17189710 allele T GENOTYPIC Imputed, fixed effect",1.959
same,OR(R),"rs17189710 allele T GENOTYPIC Imputed, random effect",1.959
same,OR,"rs17189710 allele T RECESSIVE Imputed, fixed effect",1.7043
same,OR(R),"rs17189710 allele T RECESSIVE Imputed, random effect",1.7043
same,OR,"rs17310176 allele T ADDITIVE Imputed, fixed effect",0.6909
same,OR(R),"rs17310176 allele T ADDITIVE Imputed, random effect",0.6922
same,OR,"rs17310176 allele T DOMINANT Imputed, fixed effect",0.6548
same,OR(R),"rs17310176 allele T DOMINANT Imputed, random effect",0.6669
same,Meta-analysis OR,rs17347854 allele G vs A (ref),0.61
same,OR,"rs17358860 allele A DOMINANT Imputed, fixed effect",0.6804
same,OR(R),"rs17358860 allele A DOMINANT Imputed, random effect",0.6804
same,OR,"rs17370541 allele T GENOTYPIC Imputed, fixed effect",2.055
same,OR(R),"rs17370541 allele T GENOTYPIC Imputed, random effect",2.055
same,OR,"rs17370541 allele T RECESSIVE Imputed, fixed effect",1.969
same,OR(R),"rs17370541 allele T RECESSIVE Imputed, random effect",1.969
same,OR,"rs17526574 allele G GENOTYPIC Imputed, fixed effect",2.2297
same,OR(R),"rs17526574 allele G GENOTYPIC Imputed, random effect",2.2297
same,OR,"rs17530747 allele T DOMINANT Imputed, fixed effect",0.6272
same,OR(R),"rs17530747 allele T DOMINANT Imputed, random effect",0.6272
same,OR,"rs17649114 allele C DOMINANT Imputed, fixed effect",1.4394
same,OR(R),"rs17649114 allele C DOMINANT Imputed, random effect",1.4394
same,Meta-analysis OR,"rs17718867, A1 (non-ref) A, A2 (ref) G",0.72
same,Meta-analysis OR,rs17740227 allele G vs A (ref),1.70
same,OR,"rs17766172 allele A RECESSIVE Imputed, fixed effect",0.4665
same,OR(R),"rs17766172 allele A RECESSIVE Imputed, random effect",0.4683
same,Meta-analysis OR,rs33910446 allele A vs G (ref),2.24
same,OR,[1],1.4999
same,OR(R),[1],1.4999
same,OR,[2],2.5235
same,OR(R),[2],2.5053
same,OR,[3],1.8637
same,OR(R),[3],1.8637
same,OR,[4],1.9054
same,OR(R),[4],1.9054
